Measured values from publication PMC4938514.
No constants are given. Whether binding was seen depends on the method and setting. Binding seen in cells or lysates may run through a third protein. Some results given as binding are weak or reduced against the parent protein; the word gives no strength. Where a sequence is shown, tags or fusion partners need not be part of it.

Protein sequences, listed by entry. Tags and fused reporters are not part of them.
UniProt P00520: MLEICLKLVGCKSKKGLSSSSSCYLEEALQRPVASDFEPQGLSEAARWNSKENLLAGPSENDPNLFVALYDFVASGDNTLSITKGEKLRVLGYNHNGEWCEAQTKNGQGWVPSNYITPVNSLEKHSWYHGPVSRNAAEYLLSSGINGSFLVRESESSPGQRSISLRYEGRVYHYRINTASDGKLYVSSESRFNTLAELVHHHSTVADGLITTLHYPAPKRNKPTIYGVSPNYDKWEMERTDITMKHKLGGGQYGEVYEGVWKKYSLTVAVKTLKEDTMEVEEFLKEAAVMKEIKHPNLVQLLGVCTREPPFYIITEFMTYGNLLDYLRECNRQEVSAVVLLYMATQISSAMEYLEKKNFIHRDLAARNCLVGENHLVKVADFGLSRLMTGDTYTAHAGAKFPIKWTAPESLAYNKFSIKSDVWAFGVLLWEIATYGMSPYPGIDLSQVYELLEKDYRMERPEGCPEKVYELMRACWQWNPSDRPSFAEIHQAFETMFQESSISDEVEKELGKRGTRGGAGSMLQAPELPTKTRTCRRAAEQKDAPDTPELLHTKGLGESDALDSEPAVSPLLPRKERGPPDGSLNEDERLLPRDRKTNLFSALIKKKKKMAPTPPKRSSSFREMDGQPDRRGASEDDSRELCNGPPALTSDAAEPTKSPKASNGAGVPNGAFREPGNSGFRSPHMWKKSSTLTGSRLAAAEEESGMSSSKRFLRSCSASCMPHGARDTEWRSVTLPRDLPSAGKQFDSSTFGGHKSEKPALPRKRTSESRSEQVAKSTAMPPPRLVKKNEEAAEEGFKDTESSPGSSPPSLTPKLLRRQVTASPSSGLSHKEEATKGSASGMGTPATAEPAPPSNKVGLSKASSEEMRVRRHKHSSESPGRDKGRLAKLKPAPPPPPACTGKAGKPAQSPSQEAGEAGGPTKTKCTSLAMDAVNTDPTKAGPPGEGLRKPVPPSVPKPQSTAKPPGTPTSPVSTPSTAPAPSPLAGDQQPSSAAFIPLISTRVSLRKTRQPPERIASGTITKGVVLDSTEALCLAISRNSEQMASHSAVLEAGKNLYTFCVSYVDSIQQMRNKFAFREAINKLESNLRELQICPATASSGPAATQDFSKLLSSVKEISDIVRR

How the values were obtained:
[1] = target: Full-length V5-tagged Abelson kinase (Abl-V5) (UniProt P00520); assay: co-IP; as a5, but cells not treated with PlxnA2-EC; IP with anti-V5, blot with anti-myc
[2] = target: Full-length V5-tagged Abelson kinase (Abl-V5) (UniProt P00520); assay: co-IP; co-transfected COS-7 cells, serum-starved 16h, stimulated with conditioned medium with PlexinA2-EC for 20 min at 37°C (untreated cells alongside; with or without co-transfected PlxnA2), lysed; 2h at 4°C with anti-myc or anti-V5

B1: myc-Sema6A-FL (protein, UniProt O35464 19-1031)
chain: GFPEDSEPISISHGNYTKQYPVFVGHKPGRNTTQRHRLDIQMIMIMNRTLYVAARDHIYTVDIDTSHTEEIYCSKKLTWKSRQADVDTCRMKGKHKDECHNFIKVLLKKNDDTLFVCGTNAFNPSCRNYRVDTLETFGDEFSGMARCPYDAKHANIALFADGKLYSATVTDFLAIDAVIYRSLGDSPTLRTVKHDSKWLKEPYFVQAVDYGDYIYFFFREIAVEYNTMGKVVFPRVAQVCKNDMGGSQRVLEKQWTSFLKARLNCSVPGDSHFYFNILQAVTDVIRINGRDVVLATFSTPYNSIPGSAVCAYDMLDIANVFTGRFKEQKSPDSTWTPVPDERVPKPRPGCCAGSSSLEKYATSNEFPDDTLNFIKTHPLMDEAVPSIINRPWFLRTMVRYRLTKIAVDNAAGPYQNHTVVFLGSEKGIILKFLARIGSSGFLNGSLFLEEMNVYNPEKCSYDGVEDKRIMGMQLDRASGSLYVAFSTCVIKVPLGRCERHGKCKKTCIASRDPYCGWVRESGSCAHLSPLSRLTFEQDIERGNTDGLGDCHNSFVALNGHASSLYPSTTTSDSASRDGYESRGGMLDWNDLLEAPGSTDPLGAVSSHNHQDKKGVIRESYLKSNDQLVPVTLLAIAVILAFVMGAVFSGIIVYCVCDHRRKDVAVVQRKEKELTHSRRGSMSSVTKLSGLFGDTQSKDPKPEAILTPLMHNGKLATPSNTAKMLIKADQHHLDLTALPTPESTPTLQQKRKPNRGSREWERNQNIINACTKDMPPMGSPVIPTDLPLRASPSHIPSVVVLPITQQGYQHEYVDQPKMSEVVAQMALEDQAATLEYKTIKEHLSSKSPNHGVNLVENLDSLPPKVPQREASLGPPGTSLSQTGLSKRLEMQHSSSYGLEYKRSYPTNSLTRSHQTTTLKRNNTNSSNSSHLSRNQSFGRGDNPPPAPQRVDSIQVHSSQPSGQAVTVSRQPSLNAYNSLTRSGLKRTPSLKPDVPPKPSFAPLSTSMKPNDACT
binding [1]: no binding (condition: cells not treated with PlxnA2-EC) | binding [2]: binds
